Results: the supplement of paper PMC12067093, “Discovery and optimisation of a covalent ligand for TRIM25 and its application to targeted protein ubiquitination” (Chemical Science, 2025)
Some of the results follow.

Chains of the proteins cited; added tags and fusions are not shown. Lines headed by an entry give the natural chain unless they say otherwise; changes in a name come on top.
UniProt Q14160: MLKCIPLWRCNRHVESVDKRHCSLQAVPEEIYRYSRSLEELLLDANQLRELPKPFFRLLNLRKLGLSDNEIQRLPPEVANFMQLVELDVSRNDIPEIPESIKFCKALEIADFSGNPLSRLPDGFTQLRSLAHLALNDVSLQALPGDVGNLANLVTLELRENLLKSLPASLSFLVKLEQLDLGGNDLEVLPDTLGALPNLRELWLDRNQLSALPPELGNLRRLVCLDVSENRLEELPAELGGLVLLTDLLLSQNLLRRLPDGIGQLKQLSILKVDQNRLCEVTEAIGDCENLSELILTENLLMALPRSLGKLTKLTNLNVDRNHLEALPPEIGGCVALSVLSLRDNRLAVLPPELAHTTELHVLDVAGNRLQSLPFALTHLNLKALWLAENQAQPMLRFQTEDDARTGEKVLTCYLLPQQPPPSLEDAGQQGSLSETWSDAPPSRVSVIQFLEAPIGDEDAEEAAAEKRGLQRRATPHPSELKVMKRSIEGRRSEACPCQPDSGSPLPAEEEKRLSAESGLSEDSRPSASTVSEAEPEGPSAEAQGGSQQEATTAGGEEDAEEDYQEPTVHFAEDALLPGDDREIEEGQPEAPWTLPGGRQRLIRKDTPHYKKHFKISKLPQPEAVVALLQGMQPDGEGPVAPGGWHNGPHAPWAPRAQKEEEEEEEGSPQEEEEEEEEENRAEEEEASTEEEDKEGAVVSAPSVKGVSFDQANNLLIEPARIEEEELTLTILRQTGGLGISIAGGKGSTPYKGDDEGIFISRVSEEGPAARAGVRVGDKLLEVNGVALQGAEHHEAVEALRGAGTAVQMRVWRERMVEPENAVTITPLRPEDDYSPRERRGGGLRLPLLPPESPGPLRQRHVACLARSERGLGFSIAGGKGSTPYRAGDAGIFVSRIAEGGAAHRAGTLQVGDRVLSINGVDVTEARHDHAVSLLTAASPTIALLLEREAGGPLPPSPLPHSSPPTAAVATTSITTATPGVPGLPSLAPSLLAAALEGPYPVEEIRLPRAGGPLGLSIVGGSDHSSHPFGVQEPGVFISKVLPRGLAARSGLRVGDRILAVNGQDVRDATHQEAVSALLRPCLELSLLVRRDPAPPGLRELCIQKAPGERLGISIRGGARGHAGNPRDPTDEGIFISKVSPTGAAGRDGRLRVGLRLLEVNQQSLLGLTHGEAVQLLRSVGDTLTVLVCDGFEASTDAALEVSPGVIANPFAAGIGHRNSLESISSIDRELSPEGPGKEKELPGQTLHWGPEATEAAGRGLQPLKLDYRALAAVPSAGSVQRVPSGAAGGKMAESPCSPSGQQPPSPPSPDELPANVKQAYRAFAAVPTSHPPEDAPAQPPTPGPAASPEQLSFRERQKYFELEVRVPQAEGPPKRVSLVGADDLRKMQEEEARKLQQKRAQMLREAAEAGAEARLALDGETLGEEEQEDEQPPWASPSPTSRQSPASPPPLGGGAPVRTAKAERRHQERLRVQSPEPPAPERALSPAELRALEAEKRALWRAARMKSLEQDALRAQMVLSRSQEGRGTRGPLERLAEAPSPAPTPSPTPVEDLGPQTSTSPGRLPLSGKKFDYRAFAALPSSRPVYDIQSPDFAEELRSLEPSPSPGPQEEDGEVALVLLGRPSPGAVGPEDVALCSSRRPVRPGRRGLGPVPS
UniProt Q9Y3A5: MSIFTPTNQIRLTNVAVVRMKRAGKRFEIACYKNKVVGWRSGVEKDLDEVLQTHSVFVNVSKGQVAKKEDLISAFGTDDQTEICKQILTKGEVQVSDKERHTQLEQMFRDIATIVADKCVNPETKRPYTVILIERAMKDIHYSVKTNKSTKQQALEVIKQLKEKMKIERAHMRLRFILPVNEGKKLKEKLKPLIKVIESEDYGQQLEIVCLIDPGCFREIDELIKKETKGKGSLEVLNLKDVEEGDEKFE
UniProt Q9Y6Y8: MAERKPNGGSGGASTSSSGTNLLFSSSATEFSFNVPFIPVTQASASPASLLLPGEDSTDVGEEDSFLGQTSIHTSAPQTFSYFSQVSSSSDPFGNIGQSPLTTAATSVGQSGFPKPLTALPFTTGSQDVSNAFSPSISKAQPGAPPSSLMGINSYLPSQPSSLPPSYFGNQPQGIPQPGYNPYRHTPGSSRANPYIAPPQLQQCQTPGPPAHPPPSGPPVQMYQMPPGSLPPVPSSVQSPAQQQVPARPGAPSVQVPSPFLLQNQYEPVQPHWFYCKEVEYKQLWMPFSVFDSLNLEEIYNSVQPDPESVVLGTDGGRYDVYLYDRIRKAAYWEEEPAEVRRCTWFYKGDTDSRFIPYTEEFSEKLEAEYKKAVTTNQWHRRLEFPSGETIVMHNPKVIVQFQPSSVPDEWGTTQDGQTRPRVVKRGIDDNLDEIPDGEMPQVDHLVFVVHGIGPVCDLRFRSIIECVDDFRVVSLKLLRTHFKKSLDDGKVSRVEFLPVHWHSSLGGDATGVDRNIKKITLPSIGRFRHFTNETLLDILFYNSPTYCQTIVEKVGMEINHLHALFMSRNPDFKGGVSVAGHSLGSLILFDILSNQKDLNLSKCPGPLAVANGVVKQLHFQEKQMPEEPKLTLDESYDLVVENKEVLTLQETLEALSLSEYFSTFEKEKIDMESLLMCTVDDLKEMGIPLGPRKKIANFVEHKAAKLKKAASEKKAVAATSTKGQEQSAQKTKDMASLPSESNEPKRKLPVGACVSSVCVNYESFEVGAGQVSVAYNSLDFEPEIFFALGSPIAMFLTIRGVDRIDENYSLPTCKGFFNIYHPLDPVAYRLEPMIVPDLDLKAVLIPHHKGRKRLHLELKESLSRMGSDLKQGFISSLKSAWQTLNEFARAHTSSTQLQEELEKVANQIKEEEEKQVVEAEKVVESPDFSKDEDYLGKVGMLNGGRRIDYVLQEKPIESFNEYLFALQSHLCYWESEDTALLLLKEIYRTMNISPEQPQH
UniProt P20132: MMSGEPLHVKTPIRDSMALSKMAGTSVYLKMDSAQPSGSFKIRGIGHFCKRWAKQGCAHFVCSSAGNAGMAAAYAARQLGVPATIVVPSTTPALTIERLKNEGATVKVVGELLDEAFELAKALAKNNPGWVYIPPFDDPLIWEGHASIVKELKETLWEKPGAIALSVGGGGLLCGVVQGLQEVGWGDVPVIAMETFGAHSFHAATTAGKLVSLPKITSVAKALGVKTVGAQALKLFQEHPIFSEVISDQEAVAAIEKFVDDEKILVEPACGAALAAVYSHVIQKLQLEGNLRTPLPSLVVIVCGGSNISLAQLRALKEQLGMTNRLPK
UniProt Q9Y6B6: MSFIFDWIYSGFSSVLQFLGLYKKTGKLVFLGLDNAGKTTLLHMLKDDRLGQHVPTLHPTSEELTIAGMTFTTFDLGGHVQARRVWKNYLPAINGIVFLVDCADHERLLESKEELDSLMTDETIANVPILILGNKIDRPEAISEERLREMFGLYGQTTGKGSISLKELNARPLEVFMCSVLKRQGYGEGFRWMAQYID
UniProt O00560: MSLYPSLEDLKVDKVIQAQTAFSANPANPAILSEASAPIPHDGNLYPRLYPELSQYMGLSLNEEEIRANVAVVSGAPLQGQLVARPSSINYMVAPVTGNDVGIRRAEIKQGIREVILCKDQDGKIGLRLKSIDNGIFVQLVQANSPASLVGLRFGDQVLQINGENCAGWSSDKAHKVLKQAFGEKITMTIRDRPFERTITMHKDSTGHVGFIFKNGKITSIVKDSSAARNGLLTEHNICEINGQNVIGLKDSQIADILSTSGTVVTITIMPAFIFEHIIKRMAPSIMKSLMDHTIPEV
UniProt Q9HCN8: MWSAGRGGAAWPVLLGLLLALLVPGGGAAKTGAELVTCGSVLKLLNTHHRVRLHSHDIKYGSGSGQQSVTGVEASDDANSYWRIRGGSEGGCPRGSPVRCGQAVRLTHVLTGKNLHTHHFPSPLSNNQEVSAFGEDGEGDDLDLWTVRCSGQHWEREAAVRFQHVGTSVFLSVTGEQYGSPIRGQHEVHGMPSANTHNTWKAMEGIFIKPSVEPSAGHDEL
UniProt Q6UVJ0: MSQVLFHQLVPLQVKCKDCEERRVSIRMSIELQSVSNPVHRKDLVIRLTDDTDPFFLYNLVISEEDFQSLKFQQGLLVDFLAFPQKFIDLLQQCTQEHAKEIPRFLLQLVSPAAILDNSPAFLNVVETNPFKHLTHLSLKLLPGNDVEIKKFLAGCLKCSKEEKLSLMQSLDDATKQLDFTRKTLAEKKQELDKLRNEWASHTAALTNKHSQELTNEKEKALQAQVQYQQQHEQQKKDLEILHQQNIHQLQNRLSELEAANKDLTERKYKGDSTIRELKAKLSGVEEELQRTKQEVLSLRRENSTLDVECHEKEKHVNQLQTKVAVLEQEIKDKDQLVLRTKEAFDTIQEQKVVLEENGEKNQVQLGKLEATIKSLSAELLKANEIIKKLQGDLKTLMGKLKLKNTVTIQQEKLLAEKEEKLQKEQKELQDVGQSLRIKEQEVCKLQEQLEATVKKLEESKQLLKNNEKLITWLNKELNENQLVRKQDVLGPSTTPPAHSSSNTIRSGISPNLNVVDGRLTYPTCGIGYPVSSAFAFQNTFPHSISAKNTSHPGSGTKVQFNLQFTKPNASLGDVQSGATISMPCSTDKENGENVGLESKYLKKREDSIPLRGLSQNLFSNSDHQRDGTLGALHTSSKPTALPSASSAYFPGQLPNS
UniProt Q9UPN6: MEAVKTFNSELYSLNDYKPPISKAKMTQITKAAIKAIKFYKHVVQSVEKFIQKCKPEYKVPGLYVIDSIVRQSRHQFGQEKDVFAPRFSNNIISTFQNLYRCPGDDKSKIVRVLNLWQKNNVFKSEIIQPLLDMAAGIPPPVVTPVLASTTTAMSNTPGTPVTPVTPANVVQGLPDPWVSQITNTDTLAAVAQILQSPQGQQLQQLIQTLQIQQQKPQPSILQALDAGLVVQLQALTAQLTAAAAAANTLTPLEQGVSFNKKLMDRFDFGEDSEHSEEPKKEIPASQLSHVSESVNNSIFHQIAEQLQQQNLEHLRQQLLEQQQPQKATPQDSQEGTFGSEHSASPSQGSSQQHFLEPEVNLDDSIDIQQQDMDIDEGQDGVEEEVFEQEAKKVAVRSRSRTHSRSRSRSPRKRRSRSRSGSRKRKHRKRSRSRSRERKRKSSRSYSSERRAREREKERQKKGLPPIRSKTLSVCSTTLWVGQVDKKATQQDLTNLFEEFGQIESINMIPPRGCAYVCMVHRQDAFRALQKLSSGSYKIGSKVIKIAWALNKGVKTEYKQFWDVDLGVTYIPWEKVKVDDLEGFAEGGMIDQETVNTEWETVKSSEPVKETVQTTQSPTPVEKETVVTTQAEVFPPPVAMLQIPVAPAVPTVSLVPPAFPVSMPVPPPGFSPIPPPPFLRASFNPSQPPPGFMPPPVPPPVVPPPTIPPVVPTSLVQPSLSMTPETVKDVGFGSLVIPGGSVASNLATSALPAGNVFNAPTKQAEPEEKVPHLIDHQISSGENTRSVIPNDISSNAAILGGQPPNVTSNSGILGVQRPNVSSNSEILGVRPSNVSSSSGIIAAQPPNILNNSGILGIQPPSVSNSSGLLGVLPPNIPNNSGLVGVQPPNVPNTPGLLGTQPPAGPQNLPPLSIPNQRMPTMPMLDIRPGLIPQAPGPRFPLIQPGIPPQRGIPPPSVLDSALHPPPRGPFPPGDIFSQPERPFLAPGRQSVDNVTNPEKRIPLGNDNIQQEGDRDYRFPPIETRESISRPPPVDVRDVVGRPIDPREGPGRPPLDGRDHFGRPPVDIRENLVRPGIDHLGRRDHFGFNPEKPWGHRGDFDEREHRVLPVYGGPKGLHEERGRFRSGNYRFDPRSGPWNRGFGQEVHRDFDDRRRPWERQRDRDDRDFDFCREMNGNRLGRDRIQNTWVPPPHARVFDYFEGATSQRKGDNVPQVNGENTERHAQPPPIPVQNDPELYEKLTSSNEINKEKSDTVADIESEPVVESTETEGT
UniProt P21912: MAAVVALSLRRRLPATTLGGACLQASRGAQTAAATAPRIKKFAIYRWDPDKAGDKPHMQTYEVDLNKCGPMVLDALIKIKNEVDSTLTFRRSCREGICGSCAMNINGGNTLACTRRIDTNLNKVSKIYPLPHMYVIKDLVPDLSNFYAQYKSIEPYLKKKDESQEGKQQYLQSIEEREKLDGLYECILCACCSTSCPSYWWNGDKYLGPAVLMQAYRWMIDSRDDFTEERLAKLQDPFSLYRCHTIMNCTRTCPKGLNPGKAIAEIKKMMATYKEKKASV
UniProt Q96EE3: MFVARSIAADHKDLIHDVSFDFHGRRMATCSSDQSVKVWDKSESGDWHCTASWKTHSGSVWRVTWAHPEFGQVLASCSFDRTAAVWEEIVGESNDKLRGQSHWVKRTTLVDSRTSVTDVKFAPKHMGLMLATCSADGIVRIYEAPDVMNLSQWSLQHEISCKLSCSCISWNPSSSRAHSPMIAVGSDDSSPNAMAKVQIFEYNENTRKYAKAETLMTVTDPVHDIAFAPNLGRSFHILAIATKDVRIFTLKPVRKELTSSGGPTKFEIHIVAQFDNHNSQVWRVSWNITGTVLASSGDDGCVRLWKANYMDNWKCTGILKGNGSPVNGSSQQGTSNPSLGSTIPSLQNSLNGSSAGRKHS

compound: Cc1cc(ccc1-c1ccccc1)C(=O)N1CCCN(CC1)C(=O)CCl [compound 10]; assay: probe-labelled cysteine peptide fold change vs DMSO (competition) (log2 fold change); higher = less target engagement (more negative = stronger competition); conditions: 10 µM; THP-1; incubation time: 4 h
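Also: competitive profiling in live THP-1 cells: cysteine peptides tagged with an iodoacetamide desthiobiotin (IA-DTB) probe, intensity after compound treatment relative to DMSO-treated cells.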

Target | probe-labelled cysteine peptide fold change
SART3_Q15020_527_AHGDTQHCR (UniProt Q15020) | -0.00802
SBF1_O95248_1197_FPVVCWR (UniProt O95248) | -0.139
SART3_Q15020_114_NQLEIERLEEQLSINVYDYNCHVDLIR (UniProt Q15020) | 0.0864
SCRIB_Q14160_496_RSEACPCQPDSGSPLPAEEEK (UniProt Q14160) | -0.341
SDHA_P31040_475_ACALSIEESCRPGDKVPPIKPNAGEESVMNLDK (UniProt P31040) | -0.0585
SBDS_Q9Y3A5_119_CVNPETK (UniProt Q9Y3A5) | 0.0999
SATB2_Q9UPW6_195_ECPLSQSMISSIVNSTYYANVSATK (UniProt Q9UPW6) | 0.307
SEC24D_O94855_371_AYMCPFMQFIEGGR (UniProt O94855) | 0.0414
SEC23B_Q15437_40_MVVPLACLLTPLK (UniProt Q15437) | 0.0483
SATB1_Q01826_91_KGTMLPVFCVVEHYENAIEYDCKEEHAEFVLVR (UniProt Q01826) | 0.0202
SEC23IP_Q9Y6Y8_678_EKIDMESLLMCTVDDLK (UniProt Q9Y6Y8) | 0.0447
SDS_P20132_270_ILVEPACGAALAAVYSHVIQK (UniProt P20132) | 0.201
SDSL_Q96GA7_276_MLVEPACGAALAAIYSGLLR (UniProt Q96GA7) | 0.15
SAR1B_Q9Y6B6_178_PLEVFMCSVLK (UniProt Q9Y6B6) | -0.0177
SDCBP_O00560_166_FGDQVLQINGENCAGWSSDK (UniProt O00560) | -0.113
SCML2_Q9UQR0_51_ETGSISAPSECFR (UniProt Q9UQR0) | -0.0591
SEC24C_P53992_493_RVDAYDRPELSLGSYEFLATVDYCK (UniProt P53992) | -0.0958
SCAPER_Q9BY12_71_QSTAVDCK (UniProt Q9BY12) | -0.329
SCYL1_Q96KG9_503_VAGVLGFAATHNLYSMNDCAQK (UniProt Q96KG9) | -0.194
SEC24B_O95487_1267_TEAAFSYYEFLLHVQQQICK (UniProt O95487) | 0.232

Target | probe-labelled cysteine peptide fold change
SEC24B_O95487_887_YSAGCIYYYPSFHYTHNPSQAEK (UniProt O95487) | 0.182
SDF2L1_Q9HCN8_92_IRGGSEGGCPR (UniProt Q9HCN8) | -0.14
SDHA_P31040_438_HVNGQDQIVPGLYACGEAACASVHGANR (UniProt P31040) | 0.117
SART3_Q15020_537_AVQCTSDYPEHVCEVLLTMER (UniProt Q15020) | -0.0953
SBF1_O95248_987_SCTFQLLK (UniProt O95248) | 0.0279
SASS6_Q6UVJ0_310_ENSTLDVECHEK (UniProt Q6UVJ0) | 0.155
SAP18_O00422_26_TCPLLLR (UniProt O00422) | -0.186
SCAF4_O95104_506_GLPQVKPETASVCSTTLWVGQLDKR (UniProt O95104) | -0.0376
SCYL1_Q96KG9_143_ALSFLVNDCSLIHNNVCMAAVFVDR (UniProt Q96KG9) | 0.00161
SBDS_Q9Y3A5_216_VIESEDYGQQLEIVCLIDPGCFR (UniProt Q9Y3A5) | 0.237
SCAF8_Q9UPN6_1170_DRDDRDFDFCR (UniProt Q9UPN6) | -0.37
SCAF11_Q99590_566_VYQPVSCPLSDLSENVESVVNEEK (UniProt Q99590) | -0.175
SDHB_P21912_249_CHTIMNCTR (UniProt P21912) | 0.00394
SBDS_Q9Y3A5_210+216_VIESEDYGQQLEIVCLIDPGCFR (UniProt Q9Y3A5) | 0.176
SEH1L_Q96EE3_30_MATCSSDQSVK (UniProt Q96EE3) | -0.0509
SCAF4_O95104_420_PHQQEMEVEQPCIQEVK (UniProt O95104) | -0.255
SDSL_Q96GA7_69_HLVCSSGGNAGIAAAYAAR (UniProt Q96GA7) | 0.0382
SEC24C_P53992_910_LLPVYLNCVLK (UniProt P53992) | -0.0639
SCP2_P22307_495_KADCTITMADSDFLALMTGK (UniProt P22307) | 0.142
SCAF11_Q99590_1020_HRNDCPNWITEK (UniProt Q99590) | -0.138

same assay, conditions: 50 µM; THP-1; incubation time: 4 h

Target | probe-labelled cysteine peptide fold change
SART3_Q15020_527_AHGDTQHCR (UniProt Q15020) | 0.112
SBF1_O95248_1197_FPVVCWR (UniProt O95248) | -0.0383
SART3_Q15020_114_NQLEIERLEEQLSINVYDYNCHVDLIR (UniProt Q15020) | -0.000636
SCRIB_Q14160_496_RSEACPCQPDSGSPLPAEEEK (UniProt Q14160) | -0.992
SDHA_P31040_475_ACALSIEESCRPGDKVPPIKPNAGEESVMNLDK (UniProt P31040) | -0.104
SBDS_Q9Y3A5_119_CVNPETK (UniProt Q9Y3A5) | 0.155
SATB2_Q9UPW6_195_ECPLSQSMISSIVNSTYYANVSATK (UniProt Q9UPW6) | 0.108
SEC24D_O94855_371_AYMCPFMQFIEGGR (UniProt O94855) | -0.448
SEC23B_Q15437_40_MVVPLACLLTPLK (UniProt Q15437) | -0.105
SATB1_Q01826_91_KGTMLPVFCVVEHYENAIEYDCKEEHAEFVLVR (UniProt Q01826) | -0.0214
SEC23IP_Q9Y6Y8_678_EKIDMESLLMCTVDDLK (UniProt Q9Y6Y8) | -0.159
SDS_P20132_270_ILVEPACGAALAAVYSHVIQK (UniProt P20132) | 0.177
SDSL_Q96GA7_276_MLVEPACGAALAAIYSGLLR (UniProt Q96GA7) | 0.203
SAR1B_Q9Y6B6_178_PLEVFMCSVLK (UniProt Q9Y6B6) | 0.201
SDCBP_O00560_166_FGDQVLQINGENCAGWSSDK (UniProt O00560) | -0.0879
SCML2_Q9UQR0_51_ETGSISAPSECFR (UniProt Q9UQR0) | -0.197
SEC24C_P53992_493_RVDAYDRPELSLGSYEFLATVDYCK (UniProt P53992) | 0.311
SCAPER_Q9BY12_71_QSTAVDCK (UniProt Q9BY12) | -0.143
SCYL1_Q96KG9_503_VAGVLGFAATHNLYSMNDCAQK (UniProt Q96KG9) | -0.333
SEC24B_O95487_1267_TEAAFSYYEFLLHVQQQICK (UniProt O95487) | 0.457

Target | probe-labelled cysteine peptide fold change
SEC24B_O95487_887_YSAGCIYYYPSFHYTHNPSQAEK (UniProt O95487) | 0.0862
SDF2L1_Q9HCN8_92_IRGGSEGGCPR (UniProt Q9HCN8) | -0.225
SDHA_P31040_438_HVNGQDQIVPGLYACGEAACASVHGANR (UniProt P31040) | 0.0834
SART3_Q15020_537_AVQCTSDYPEHVCEVLLTMER (UniProt Q15020) | 0.0951
SBF1_O95248_987_SCTFQLLK (UniProt O95248) | 0.0984
SASS6_Q6UVJ0_310_ENSTLDVECHEK (UniProt Q6UVJ0) | 0.0919
SAP18_O00422_26_TCPLLLR (UniProt O00422) | 0.00273
SCAF4_O95104_506_GLPQVKPETASVCSTTLWVGQLDKR (UniProt O95104) | -0.21
SCYL1_Q96KG9_143_ALSFLVNDCSLIHNNVCMAAVFVDR (UniProt Q96KG9) | 0.208
SBDS_Q9Y3A5_216_VIESEDYGQQLEIVCLIDPGCFR (UniProt Q9Y3A5) | 0.238
SCAF8_Q9UPN6_1170_DRDDRDFDFCR (UniProt Q9UPN6) | -0.343
SCAF11_Q99590_566_VYQPVSCPLSDLSENVESVVNEEK (UniProt Q99590) | -0.249
SDHB_P21912_249_CHTIMNCTR (UniProt P21912) | 0.104
SBDS_Q9Y3A5_210+216_VIESEDYGQQLEIVCLIDPGCFR (UniProt Q9Y3A5) | -0.074
SEH1L_Q96EE3_30_MATCSSDQSVK (UniProt Q96EE3) | -0.0324
SCAF4_O95104_420_PHQQEMEVEQPCIQEVK (UniProt O95104) | -0.103
SDSL_Q96GA7_69_HLVCSSGGNAGIAAAYAAR (UniProt Q96GA7) | 0.127
SEC24C_P53992_910_LLPVYLNCVLK (UniProt P53992) | -0.08
SCP2_P22307_495_KADCTITMADSDFLALMTGK (UniProt P22307) | 0.0707
SCAF11_Q99590_1020_HRNDCPNWITEK (UniProt Q99590) | -0.262
